The other results are listed elsewhere or left out.
What was measured:
Assay in all cases: probe-labelled cysteine peptide fold change vs DMSO (competition) (log2 fold change); higher = less target engagement (more negative = stronger competition)
Details in all cases: THP-1, incubation time: 4 h
[1] = target: SARS2_Q9NP81_425_FGEVTSASNCTDFQSR (UniProt Q9NP81)
[2] = target: SARS2_Q9NP81_64_FCACPEEAAHALELR (UniProt Q9NP81)
SARS_P49591_162_IWGDCTVR = SARS_P49591_162_IWGDCTVR (UniProt P49591)
[3] = target: SARS_P49591_395+398_ELVSCSNCTDYQAR (UniProt P49591)
[4] = target: SARS_P49591_395_ELVSCSNCTDYQAR (UniProt P49591)
[5] = target: SARS_P49591_398_ELVSCSNCTDYQAR (UniProt P49591)
[6] = target: SARS_P49591_431_VEFVHMLNATMCATTR (UniProt P49591)
[7] = target: SARS_P49591_438_TICAILENYQTEK (UniProt P49591)
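Note: competitive chemoproteomic profiling in live THP-1 cells with an iodoacetamide desthiobiotin (IA-DTB) probe, comparing probe-labelled peptide intensities in compound-treated cells against DMSO-treated controls.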

Sequences of proteins named here, by UniProt entry; tags and fusion partners are left off. A change or cut given only in a name is not applied to a line headed by its entry.
UniProt Q9NP81: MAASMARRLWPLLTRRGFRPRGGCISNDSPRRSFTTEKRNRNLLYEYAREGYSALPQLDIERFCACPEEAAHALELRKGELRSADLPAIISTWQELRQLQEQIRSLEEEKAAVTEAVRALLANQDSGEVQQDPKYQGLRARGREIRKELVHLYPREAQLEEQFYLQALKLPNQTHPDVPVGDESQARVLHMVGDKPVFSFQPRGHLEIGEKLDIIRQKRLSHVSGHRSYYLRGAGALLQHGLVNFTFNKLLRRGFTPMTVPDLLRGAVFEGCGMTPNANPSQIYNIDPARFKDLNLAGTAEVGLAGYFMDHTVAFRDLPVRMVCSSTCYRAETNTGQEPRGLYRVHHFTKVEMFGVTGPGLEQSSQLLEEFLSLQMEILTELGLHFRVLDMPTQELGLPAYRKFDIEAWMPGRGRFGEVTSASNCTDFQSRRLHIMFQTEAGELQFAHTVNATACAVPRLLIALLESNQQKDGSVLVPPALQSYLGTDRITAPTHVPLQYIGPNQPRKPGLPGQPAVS
UniProt P49591: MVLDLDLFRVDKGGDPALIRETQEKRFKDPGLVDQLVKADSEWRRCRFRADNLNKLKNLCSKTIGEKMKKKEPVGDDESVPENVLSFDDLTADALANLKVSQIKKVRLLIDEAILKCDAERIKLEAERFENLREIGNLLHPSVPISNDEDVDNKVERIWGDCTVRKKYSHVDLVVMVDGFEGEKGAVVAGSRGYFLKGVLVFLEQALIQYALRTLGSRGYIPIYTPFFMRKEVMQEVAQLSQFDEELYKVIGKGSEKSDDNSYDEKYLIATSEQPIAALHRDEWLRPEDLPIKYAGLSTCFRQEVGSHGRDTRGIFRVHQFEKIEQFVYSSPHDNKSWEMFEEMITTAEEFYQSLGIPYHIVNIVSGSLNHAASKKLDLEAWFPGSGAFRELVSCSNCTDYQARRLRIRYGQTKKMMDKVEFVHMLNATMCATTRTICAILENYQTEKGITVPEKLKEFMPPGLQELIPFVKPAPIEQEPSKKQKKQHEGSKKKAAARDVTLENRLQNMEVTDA

SMILES: CC1Cc2ccccc2N1C(=O)C1CCCN(C(=O)CCl)C1 (mixture of isomers) [TRIM25 ligand 11 (diastereomer mixture)]
- probe-labelled cysteine peptide fold change ([1]; 10 µM): 0.00527
- probe-labelled cysteine peptide fold change ([1]; 50 µM): 0.0883
- probe-labelled cysteine peptide fold change ([2]; 10 µM): 0.0283
- probe-labelled cysteine peptide fold change ([2]; 50 µM): -0.14
- probe-labelled cysteine peptide fold change (SARS_P49591_162_IWGDCTVR; 10 µM): -0.0319
- probe-labelled cysteine peptide fold change (SARS_P49591_162_IWGDCTVR; 50 µM): 0.0727
- probe-labelled cysteine peptide fold change ([3]; 10 µM): -0.078
- probe-labelled cysteine peptide fold change ([3]; 50 µM): -0.0883
- probe-labelled cysteine peptide fold change ([4]; 10 µM): 0.00133
- probe-labelled cysteine peptide fold change ([4]; 50 µM): 0.134
- probe-labelled cysteine peptide fold change ([5]; 10 µM): 0.107
- probe-labelled cysteine peptide fold change ([5]; 50 µM): 0.176
- probe-labelled cysteine peptide fold change ([6]; 10 µM): 0.102
- probe-labelled cysteine peptide fold change ([6]; 50 µM): 0.113
- probe-labelled cysteine peptide fold change ([7]; 10 µM): 0.138
- probe-labelled cysteine peptide fold change ([7]; 50 µM): 0.0291

Source: the supplement of paper PMC12067093, “Discovery and optimisation of a covalent ligand for TRIM25 and its application to targeted protein ubiquitination” (Chemical Science, 2025)
